According to article PMC5861035:
These are yes or no findings as the source states them, for the method shown. For part of these data: In cells and extracts the contact can be indirect. Some entries that bind do so weakly or less than the wild type. Where a sequence is shown, tags or fusion partners need not be part of it.

Amino acid sequences for entries named in this document (tags omitted).
UniProt O14744: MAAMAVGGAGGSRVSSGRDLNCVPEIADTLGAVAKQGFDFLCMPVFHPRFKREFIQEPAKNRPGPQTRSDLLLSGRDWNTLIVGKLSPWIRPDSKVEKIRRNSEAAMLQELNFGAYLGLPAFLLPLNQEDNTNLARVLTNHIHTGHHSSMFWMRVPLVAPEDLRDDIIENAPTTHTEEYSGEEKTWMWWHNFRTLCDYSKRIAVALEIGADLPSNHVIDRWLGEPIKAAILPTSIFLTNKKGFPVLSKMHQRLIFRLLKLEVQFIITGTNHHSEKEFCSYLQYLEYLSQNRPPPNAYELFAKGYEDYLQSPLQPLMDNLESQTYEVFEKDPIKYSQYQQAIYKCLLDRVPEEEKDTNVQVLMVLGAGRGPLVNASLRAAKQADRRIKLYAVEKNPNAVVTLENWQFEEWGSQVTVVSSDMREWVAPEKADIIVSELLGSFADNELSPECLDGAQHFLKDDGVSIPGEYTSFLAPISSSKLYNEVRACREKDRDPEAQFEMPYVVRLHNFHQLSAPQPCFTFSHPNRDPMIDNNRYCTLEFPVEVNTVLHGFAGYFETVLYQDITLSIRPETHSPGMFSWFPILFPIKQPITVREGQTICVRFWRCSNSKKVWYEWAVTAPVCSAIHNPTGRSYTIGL

What was measured:
[1] = target: FLAG-LCE1C (late cornified envelope 1C) (UniProt Q5T751); assay: SDS-PAGE and Western blot of cell extract; extracts of 293T cells expressing FLAG-vector alone or FLAG-LCE1C; oligomer bands assigned from a linear plot of migration distance against molecular weight
[2] = target: protein arginine methyltransferase 5 (PRMT5), endogenous (human (endogenous in 293T)) (UniProt O14744); assay: co-IP; extract of 293T cells (legend; the text says U2OS) expressing FLAG-LCE1C; endogenous PRMT5; precipitating antibody not stated
[3] = target: FLAG-PRMT5 (UniProt O14744); assay: co-IP; extract of 293T cells expressing Myc-LCE1C and/or FLAG-PRMT5; precipitating antibody not stated

binding [1]	binding [2]	binding [3]	Binder
binds	binds weakly		FLAG-LCE1C (late cornified envelope 1C) (protein, UniProt Q5T751 1-118) MSCQQSQQQCQPPPKCTPKCPPKCPTPKCPPKCPPKCPPVSSCCSVSSGGCCGSSSGGSCGSSSGGCCSSGGGGCCLSHHRRRRSHCHRPQSSGCCSQPSGGSSCCGGGSGQHSGGCC
		binds	Myc-LCE1C (protein, UniProt Q5T751 1-118) MSCQQSQQQCQPPPKCTPKCPPKCPTPKCPPKCPPKCPPVSSCCSVSSGGCCGSSSGGSCGSSSGGCCSSGGGGCCLSHHRRRRSHCHRPQSSGCCSQPSGGSSCCGGGSGQHSGGCC
